In all, about 360,000 compounds went through this assay and about 7,500 (2.1%) were called active. The shares of active, inactive and inconclusive entries below differ from those in the screen. Calls follow the shape of the dose curve; as a rule, active = well fitted inhibition curve with a large enough effect; inconclusive = small, poorly fitted or top-dose-only effect, or effect the other way; inactive = flat fitted curve, though single readings scatter. Where the call is inconclusive, the potency comes from a doubtful curve fit.
Assay: Nrf2 qHTS screen for inhibitors; also: nearly all actives have a fitted effect of over 60% in size
Conditions: A549 ARE-Fluc reporter, luciferase luminescence, 18-24 h; activity change, negative = inhibition: at 46 µM (top of the series)
Method in brief: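 Reporter: ARE-Fluc in A549. Exposure: 18-24 h, 37 °C, 5% CO2, 5% FBS OPTI-MEM. Readouts: fluorescent cytotoxicity (CellTiter-Fluor), then luminescent Nrf2 signal after BugLite.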
% is scaled to controls: 0 for no effect and ±100 for the full control effect; potency is read from the fitted curve at half-maximal effect.

SMILES	Potency	activity change, negative = inhibition
O=C(c1cnn2c(C(F)F)cc(-c3ccccc3)nc12)N1CCCCC1c1cccnc1 (stereo not drawn)	inconclusive: 16.4 µM [falling, partial curve]	
CC(C)(C)OC(=O)[C@H](Cc1ccccc1)NC(=O)c1nc[nH]c1C(=O)NC1CCN(C(=O)OC(C)(C)C)CC1	inconclusive: 23.1 µM [falling, single point]	
CCCCC(=O)NC(=S)NNC(=O)c1ccc(Cl)cc1Cl	inconclusive: 14.6 µM [falling, single point]	
CCC(=O)N1CCc2cc(S(=O)(=O)CCC(=O)Nc3ccc(Cl)c(C(F)(F)F)c3)ccc21	active: 20.6 µM	
COc1ccc(NC(=O)CSc2oc(-c3cccs3)nc2S(=O)(=O)c2ccc(Br)cc2)c(OC)c1		inactive: 2.26% [at 9.27 µM]
C/C(=N\OC(=O)c1ccc(Cl)cc1)c1sc(-c2ccccc2)nc1C	inconclusive: 11.6 µM [activator, partial curve]	
COc1ccc(NN=Nc2ccc([N+](=O)[O-])cc2)cc1	inconclusive: 4.61 µM [activator, full curve]	
Cc1cccc(OCC(=O)Nc2ccccc2N2CCCCC2)c1	inconclusive: 2.91 µM [falling, partial curve, poor fit]	
Fc1ccc(C(c2nnnn2CCc2ccccc2)N2CCCc3ccccc32)cc1 (stereo not drawn)	inconclusive: 18.4 µM [falling, partial curve]	
CCCCN1C(=O)c2ccc(C(=O)Nc3cccc(C)c3C)cc2C1=O	inactive	
Cc1occc1C(=O)N/N=C/c1ccc2c(c1)OCO2	inconclusive: 29.1 µM [activator, single point]	
CCN(CC)CCN(C(=O)c1ccc(CN2CCCCC2)o1)C(C(=O)NC1CCCCC1)c1ccc(F)cc1 (stereo not drawn)	inactive	
COc1ccc(C2C3C(=O)N(Cc4ccccc4)C(=O)C3ON2c2ccccc2)c(OC)c1OC (stereo not drawn)	inconclusive: 29.1 µM [falling, single point]	
CCOC(=O)c1cc(-c2ccccc2)sc1NC(=O)CSc1nnnn1C	inconclusive: 16.4 µM [falling, partial curve, poor fit]	
COc1ccc(NC(=O)c2ccccc2NC(=O)C2CCCO2)cc1 (stereo not drawn)	inconclusive: 10.3 µM [activator, partial curve, poor fit]	
Cc1nc2ccn(Cc3cccs3)c(=O)c2cc1C(=O)NCc1ccccc1	inactive	
COc1ccc(C(=O)Nc2nc3ccc(S(C)(=O)=O)cc3s2)cc1OC	inconclusive: 23.1 µM [activator, single point]	
O=C(Cc1cccc2ccccc12)N/N=C/c1ccc(F)cc1	inconclusive: 6.51 µM [falling, partial curve, poor fit]	
COc1ccc(N=Cc2c(O)n(-c3cccc(C)n3)c(=O)c3ccccc23)c(OC)c1	inconclusive: 25.9 µM [falling, single point]	
Cn1c(/C(C#N)=C(\O)c2ccccc2Cl)nc2ccccc21	inconclusive: 14.6 µM [activator, partial curve]	
Cc1cccc(Cn2cc(C(=O)c3ccccc3)c(=O)c3cc4c(cc32)OCO4)c1	inconclusive: 10.3 µM [activator, partial curve, poor fit]	

SMILES	Potency	activity change, negative = inhibition
COc1ccccc1-c1cc(C(=O)NCc2ccc(F)cc2)no1	inactive	
CCc1nonc1NC(=O)c1oc2cc(C)c(Cl)cc2c1C	inconclusive: 5.17 µM [falling, partial curve]	
N#Cc1cccc(C#N)c1Oc1ccc(S(=O)(=O)Nc2ccccc2)cc1	inconclusive: 25.9 µM [falling, single point]	
Cn1c(=O)c(=O)n(C)c2cc(S(=O)(=O)N3CCC(Cc4ccccc4)CC3)ccc21	inactive	
Cc1c(O)c(=O)ccn1Cc1ccccc1	inconclusive: 11.6 µM [falling, single point]	
COc1ccc(Cl)cc1NC(=O)CN(C)C(=O)c1n[nH]c2ccccc12	inconclusive: 18.4 µM [falling, single point]	
C=CCOc1ccc(/C=C/C(=O)N2CCCN(S(=O)(=O)c3c(C)noc3C)CC2)cc1	inconclusive: 16.4 µM [falling, single point]	
CCn1cc(C(=O)O)c(=O)c2cc(F)c(N3CCN(C(=S)NC(=O)c4ccc(F)c(F)c4)CC3)cc21	inconclusive: 0.0065 µM [falling, full curve, poor fit]	
COc1ccc(N2CCN(C(=O)CSc3nc4ccccc4c(=O)[nH]3)CC2)cc1	inconclusive: 1.03 µM [falling, full curve, poor fit]	
O=C(Cc1ccccc1)Nc1cc(-c2nc3cc(Cl)ccc3o2)ccc1Cl	inactive	
N#Cc1ccccc1S(=O)(=O)N1CCC(Oc2ccc(-n3cnnn3)cc2)CC1	inconclusive: 18.4 µM [falling, single point]	
CCc1noc(C)c1C(=O)Nc1nc(-c2cc(C)ccc2C)c(C)s1	inconclusive: 14.6 µM [falling, partial curve]	
COc1ccccc1CNC(=O)CCCn1c(=O)c2cccn2c2ccccc21	inconclusive: 32.6 µM [activator, partial curve, poor fit]	
O=C(O)c1ccccc1SC1CC(=O)N(C2CCCCC2)C1=O (stereo not drawn)	inactive	
O=C(Nc1cccc([N+](=O)[O-])c1)c1ccn[nH]1	inconclusive: 10.3 µM [activator, partial curve, poor fit]	
Cc1ccc(NS(=O)(=O)c2ccc3c(c2)OCCCO3)cc1S(=O)(=O)N1CCOCC1	inconclusive: 16.4 µM [falling, partial curve, poor fit]	
CCC(C)NC(=O)c1c(N)n(/N=C/c2ccccn2)c2nc3ccccc3nc12 (stereo not drawn)	inconclusive: 10.3 µM [falling, partial curve, poor fit]	
CC(C)(C)OC(=O)N1CCC(c2c(C(=O)N3CCOCC3)cnn2-c2ccccc2Cl)CC1	inconclusive: 14.6 µM [activator, partial curve]	
O=S(=O)(Nc1nc2ccccc2nc1Cl)c1ccc2c(c1)OCCO2	inconclusive: 11.6 µM [falling, partial curve, poor fit]	
COc1ccc(-c2noc(N3CCC(C(=O)NCCCN4CCC(C)CC4)CC3)n2)cc1	inconclusive: 20.6 µM [falling, single point]	
CCN(CC)S(=O)(=O)c1ccc2oc(C(=O)NC3CCCc4ccccc43)c(C)c2c1 (stereo not drawn)	inconclusive: 16.4 µM [falling, partial curve, poor fit]	

SMILES	Potency	activity change, negative = inhibition
CC(C)CC(=O)N1CCN(Cc2ccccc2Br)CC1	inconclusive: 18.4 µM [falling, partial curve, poor fit]	
Clc1ccc(CCNC(c2cccc(Cl)c2)c2nnc(-c3ccccc3)o2)cc1 (stereo not drawn)	inactive	
COc1cc(/C=C2/NC(=O)N(Cc3ccccc3F)C2=O)ccc1O	inconclusive: 13 µM [activator, partial curve]	
CCC(C)C(=O)Nc1nc(C)c(-c2csc(Nc3cc(OC)ccc3OC)n2)s1 (stereo not drawn)	inconclusive: 18.4 µM [falling, single point]	
Cc1ccc(S(=O)(=O)CCSc2n[nH]c(=O)n2-c2ccc3c(c2)OCCO3)cc1	inactive	
COc1ccc(NS(=O)(=O)c2cc(NC(=O)C3=NN(c4ccccc4)C(=O)CC3)ccc2OC)cc1	inconclusive: 18.4 µM [falling, single point]	
COC(=O)c1ccc(COc2ccc(/C=N/N3CCN(C)CC3)cc2)cc1	inconclusive: 1.16 µM [activator, full curve]	
CO/N=C/C(C#N)=C/c1ccc(OC)cc1	inconclusive: 14.6 µM [activator, partial curve]	
CCOC(=O)c1c(C)oc2ncnc(N3CCN(c4cccc(Cl)c4)CC3)c12	inconclusive: 18.4 µM [falling, single point]	
CC(NC(=O)c1ccc2ccccc2n1)c1ccc(Br)cc1 (stereo not drawn)	inconclusive: 1.84 µM [activator, full curve, poor fit]	
CC1CN(C(=O)c2cc(-c3ccncc3)nc3ccccc23)CC(C)O1 (stereo not drawn)	inconclusive: 16.4 µM [activator, single point]	
CCOC(=O)c1c(C)[nH]c(C)c1S(=O)(=O)N1CCN(c2ccccc2OC)CC1	inactive	
COc1ccc(N/C=C/C(=O)c2ccc(Cl)cc2)cc1	inconclusive: 16.4 µM [activator, partial curve, poor fit]	
CCCc1cc(=O)n2[nH]c(C)c(-c3ccc(Cl)cc3)c2n1	inconclusive: 20.6 µM [falling, single point]	
CC1CN(S(=O)(=O)c2ccc(C(=O)Nc3ccccc3F)cc2)CC(C)O1 (stereo not drawn)	inconclusive: 20.6 µM [falling, single point]	
COc1ccc(C(CCNC(C)c2ccccc2)C(C)C)cc1 (stereo not drawn)	inactive	
CN(C)S(=O)(=O)c1ccc(NC(=O)c2cc3ccccc3o2)cc1	inconclusive: 29.1 µM [falling, single point]	
CCOC(=O)c1c(NC(=O)c2cc(=O)c3c(C)cc(C)cc3o2)sc2c1CCC2	inactive	
COc1ccc(-c2cc(C(=O)OCC(=O)c3cccc(OC)c3)c3cccc(Cl)c3n2)cc1	inconclusive: 0.291 µM [falling, full curve, poor fit]	
Cc1cc(OCC(=O)NNC(=S)NC(=O)c2ccc(Br)o2)ccc1Cl	inconclusive: 20.6 µM [falling, single point]	
CN(CCOc1ccccc1)C(=O)c1ccc(F)c(S(=O)(=O)N2CCOCC2)c1	inconclusive: 16.4 µM [falling, partial curve, poor fit]	

Of the compounds above, two have a tert-butyl group:
SMILES	Potency	activity change, negative = inhibition
CC(C)(C)OC(=O)[C@H](Cc1ccccc1)NC(=O)c1nc[nH]c1C(=O)NC1CCN(C(=O)OC(C)(C)C)CC1	inconclusive: 23.1 µM [falling, single point]	
CC(C)(C)OC(=O)N1CCC(c2c(C(=O)N3CCOCC3)cnn2-c2ccccc2Cl)CC1	inconclusive: 14.6 µM [activator, partial curve]	

Reference: PubChem BioAssay AID504444 (National Center for Advancing Translational Sciences (NCATS), 2011)
